Measured values taken from the supplement of paper PMC10470496.
Structures can show the parent of a compound that is named as a salt. The list shows a part of the results. Many values rest on one well or one pass, so single values are uncertain.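 The strains were three CDC resistance-bank clinical C. auris isolates from clades III, IV and I, cultured in RPMI-1640 at 35°C. Growth was background-corrected OD600 versus vehicle-only wells on the same plate. A hit needed >50% inhibition in two or more strains plus a plate-corrected B-score exceeding 0.1.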

Key:
Assay in all cases: growth relative to vehicle control (OD600 ratio) (fraction); higher = less inhibition
Conditions in all cases: 24 h
C. auris AR-384 = tested on: C. auris AR-384
C. auris AR-386 = tested on: C. auris AR-386
C. auris AR-387 = tested on: C. auris AR-387

Compound | growth (C. auris AR-384; 1 µM) | growth (C. auris AR-384; 10 µM) | growth (C. auris AR-386; 1 µM) | growth (C. auris AR-386; 10 µM) | growth (C. auris AR-387; 1 µM) | growth (C. auris AR-387; 10 µM)
O=c1oc2cc(O)ccc2s1 [Tioxolone] | 1.38 | 0.79 | 0.89 | 0.98 | 0.95 | 1.03
NC(=O)c1cn(Cc2c(F)cccc2F)nn1 [Rufinamide] | 0.62 | 0.61 | 1.08 | 0.84 | 1.21 | 0.74
CCCC(=O)Nc1ccc(OCC(O)CNC(C)C)c(C(C)=O)c1 (stereo not drawn) [Acebutolol HCl] | 0.78 | 0.79 | 0.57 | 0.71 | 0.74 | 0.78
CCCCS(=O)(=O)N[C@@H](Cc1ccc(OCCCCC2CCNCC2)cc1)C(=O)O [Tirofiban Hydrochloride] | 1.23 | 1.29 | 1.02 | 1.25 | 1.26 | 1.3
Clc1ccc2nsnc2c1NC1=NCCN1 [Tizanidine HCl] | 0.91 | 0.58 | 0.54 | 1.11 | 0.89 | 0.99
C[C@H](CCC(=O)O)[C@H]1CC[C@H]2[C@@H]3[C@H](O)C[C@@H]4C[C@H](O)CC[C@]4(C)[C@H]3CC[C@]12C [Chenodeoxycholic Acid] | 1.05 | 1.39 | 0.98 | 1.58 | 1.16 | 1.43
Cc1ccc(O)c([C@H](CCN(C(C)C)C(C)C)c2ccccc2)c1 [Tolterodine tartrate] | 0.93 | 0.86 | 1.08 | 0.92 | 0.96 | 0.96
CN(C/C=C/C#CC(C)(C)C)Cc1cccc2ccccc12 [Terbinafine] | 0.37 | 0.84 | 0.48 | 1.13 | 0.33 | 0.74
COc1ccc(Cl)cc1C(=O)NCCc1ccc(S(=O)(=O)NC(=O)NC2CCCCC2)cc1 [Glyburide (Glibenclamide)] | 1.12 | 0.79 | 0.94 | 1.26 | 0.93 | 0.95
O=C(O)c1ccccc1Nc1cccc(C(F)(F)F)c1 [Flufenamic acid] | 0.78 | 0.85 | 0.73 | 0.78 | 0.67 | 0.67
CC(C(=O)O)c1ccc2c(c1)CC(=O)c1ccccc1S2 (stereo not drawn) [Zaltoprofen] | 0.87 | 0.89 | 0.88 | 0.99 | 0.85 | 1.14
CCOc1nc2cccc(C(=O)O)c2n1Cc1ccc(-c2ccccc2-c2noc(=O)[nH]2)cc1 [Azilsartan] | 1.04 | 0.85 | 0.92 | 1.05 | 0.89 | 1.08
O=C1O[C@H]([C@@H](O)CO)C([O-])=C1O.[Na+] [Sodium ascorbate] | 1.02 | 1.08 | 1.03 | 1.18 | 0.93 | 0.96
COC(=O)[C@H](c1ccccc1Cl)N1CCc2sccc2C1 [Clopidogrel] | 1.02 | 0.57 | 0.45 | 0.72 | 0.79 | 0.7
O=C([O-])C(O)[C@H](O)[C@@H](O)[C@H](O)[C@H](O)CO.O=C([O-])C(O)[C@H](O)[C@@H](O)[C@H](O)[C@H](O)CO.[Ca+2] (stereo partly drawn) [Calcium Gluceptate] | 0.68 | 0.56 | 0.8 | 0.86 | 0.67 | 0.61
CC1(C)S[C@@H]2[C@H](NC(=O)[C@H](N)c3ccc(O)cc3)C(=O)N2[C@H]1C(=O)O [Amoxicillin Sodium] | 1.05 | 0.79 | 1.02 | 1.1 | 0.76 | 0.77
C[C@](N)(Cc1ccc(O)c(O)c1)C(=O)O [Methyldopa] | 0.91 | 0.62 | 0.72 | 1.28 | 0.85 | 0.84
OC(CCN1CCCC1)(c1ccccc1)C1CCCCC1 (stereo not drawn) [Procyclidine HCl] | 0.76 | 0.82 | 0.78 | 0.86 | 0.81 | 1.01
C[C@H](CCC(=O)O)[C@H]1CC[C@H]2[C@@H]3[C@@H](O)C[C@@H]4C[C@H](O)CC[C@]4(C)[C@H]3CC[C@]12C [Ursodiol] | 0.8 | 0.54 | 0.66 | 0.9 | 0.65 | 0.98
CC1(C)CCC(CN2CCN(c3ccc(C(=O)NS(=O)(=O)c4ccc(NCC5CCOCC5)c([N+](=O)[O-])c4)c(Oc4cnc5[nH]ccc5c4)c3)CC2)=C(c2ccc(Cl)cc2)C1 [Venetoclax (ABT-199, GDC-0199)] | 1.34 | 0.99 | 0.63 | 0.82 | 0.78 | 0.84
CCCCC(=O)N(Cc1ccc(-c2ccccc2-c2nnn[nH]2)cc1)[C@H](C(=O)O)C(C)C [Valsartan] | 1.1 | 0.88 | 0.91 | 0.97 | 0.65 | 0.56
CCN1CCN(c2cc3c(cc2F)c(=O)c(C(=O)O)cn3C2CC2)CC1 [Enrofloxacin] | 1.38 | 1.19 | 1.4 | 1.26 | 1.35 | 1.43
C[N+](C)(C)C[C@H](O)CC(=O)[O-] [L-carnitine] | 0.93 | 0.99 | 0.91 | 0.67 | 0.63 | 0.79

Complete entries from above. Values in the order: growth (C. auris AR-384; 1 µM) | growth (C. auris AR-384; 10 µM) | growth (C. auris AR-386; 1 µM) | growth (C. auris AR-386; 10 µM) | growth (C. auris AR-387; 1 µM) | growth (C. auris AR-387; 10 µM)
O=c1oc2cc(O)ccc2s1 [Tioxolone] is listed as 1.38 | 0.79 | 0.89 | 0.98 | 0.95 | 1.03
C[C@H](CCC(=O)O)[C@H]1CC[C@H]2[C@@H]3[C@@H](O)C[C@@H]4C[C@H](O)CC[C@]4(C)[C@H]3CC[C@]12C [Ursodiol] is listed as 0.8 | 0.54 | 0.66 | 0.9 | 0.65 | 0.98
